The target of this assay is Mannitol-2-dehydrogenase from Pseudomonas fluorescens, wild type (Pseudomonas fluorescens) (UniProt O08355). Kind of assay: SEC; size exclusion chromatography of the enzyme in solution (Supplementary Fig. 1); conditions not told in the main text; both purified.

This is an account of results in PMC5177890, “Controlled Orientation of Active Sites in a Nanostructured Multienzyme Complex” (Scientific Reports, 2016).

No constants are given. Whether binding was seen depends on the method and setting.

B1: Mannitol-2-dehydrogenase from Pseudomonas fluorescens, wild type (enzyme, UniProt O08355 1-493)
chain: MKLNKQNLTQLAPEVKLPAYTLADTRQGIAHIGVGGFHRAHQAYYTDALMNTGEGLDWSICGVGLRSEDRKARDDLAGQDYLFTLYELGDTDDTEVRVIGSISDMLLAEDSAQALIDKLASPEIRIVSLTITEGGYCIDDSNGEFMAHLPQIQHDLAHPSSPKTVFGFICAALTQRRAAGIPAFTVMSCDNLPHNGAVTRKALLAFAALHNAELHDWIKAHVSFPNAMVDRITPMTSTAHRLQLHDEHGIDDAWPVVCEPFVQWVLEDKFVNGRPAWEKVGVQFTDDVTPYEEMKIGLLNGSHLALTYLGFLKGYRFVHETMNDPLFVAYMRAYMDLDVTPNLAPVPGIDLTDYKQTLVDRFSNQAIADQLERVCSDGSSKFPKFTVPTINRLIADGRETERAALVVAAWALYLKGVDENGVSYTIPDPRAEFCQGLVSDDALISQRLLAVEEIFGTAIPNSPEFVAAFERCYGSLRDNGVTTTLKHLLKKPV
Consider B1, for which the binding result is listed as “no binding”.
